Test results published in patent US11555006B2, “Elucidation of novel 13-series resolvins that increase with atorvastatin and clear infections” (The Brigham and Women's Hospital, Inc., priority 2015, dated 2023).

Key:
[1] = Peripheral blood lipid mediator profiles pre and post-exercise in healthy volunteers (LC-MS-MS); type: in vivo, human; settings: endogenous level, mean, n=4
[2] = Plasma lipid mediator levels in reference plasma, healthy volunteers and sepsis patients (LC-MS-MS); type: in vivo, human; settings: endogenous level; for Reference Plasma lipid mediator level: NIST SRM 1950 plasma, mean; for Healthy Volunteer lipid mediator level / Sepsis Patients Plasma lipid mediator level: plasma; for Healthy Volunteer lipid mediator level: n=4, mean; for Sepsis Patients Plasma lipid mediator level: n=9, mean

Row | Compound | Post-Exercise lipid mediator level [1] | Pre-Exercise lipid mediator level [1] | Reference Plasma lipid mediator level [2] | Healthy Volunteer lipid mediator level [2] | Sepsis Patients Plasma lipid mediator level [2]
1 | 7,8,13-trihydroxy-docosapentaenoic [RvT2] | 2.7 pg/mL | 0.6 pg/mL | 2.2 pg/mL | 1.2 pg/mL | 10.0 pg/mL
2 | CC/C=C\C[C@H](O)/C=C/C=C\C/C=C\C/C=C\C=C\[C@@H](O)CCC(=O)O [RvD6] | 56.0 pg/mL | 37.8 pg/mL | 1.5 pg/mL | 27.6 pg/mL | 121.8 pg/mL
3 | CCC(O)/C=C/C=C\C=C\C(O)C/C=C\C=C\C(O)CCCCCC(=O)O (stereo not shown) [RvT1, 7,13,20-trihydroxy-docosapentaenoic acid] | 3.6 pg/mL | 1.8 pg/mL | 5.0 pg/mL | 2.9 pg/mL | 6.6 pg/mL
4 | CCC=CCC=CC=CC(O)C(O)C=CC=CC(O)CCCCCC(=O)O (stereo not shown) [RvT3, 7,12,13-trihydroxy-docosapentaenoic acid] | 1.8 pg/mL | 0.8 pg/mL | 1.0 pg/mL | 0.9 pg/mL | 17.5 pg/mL
5 | CC/C=C\C/C=C\C=C\C(O)C/C=C\C=C\C(O)CCCCCC(=O)O (stereo not shown) [RvT4, 7,13-dihydroxy-docosapentaenoic acid] | 1.8 pg/mL | 0.8 pg/mL | 7.3 pg/mL | 1.4 pg/mL | 15.2 pg/mL
